{"source": "PubChem BioAssay AID1508597 (Cure First, 2020)", "screen": "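Survival screen with siRNA in ovarian cancer cells derived from patients, with or without rucaparib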 (primary screen)", "system": "human ovarian carcinoma lines grown from tumours: OCI-P5x (papillary serous) and OCI-C5x (clear cell)", "reagent": "siRNA pool against human genes, 1.25 pmol siRNA per well", "timing": "72 h or 96 h, depending on the cell culture", "challenge": "rucaparib 20 µM (about IC30) or vehicle, present until read-out", "measurement": "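Luminescent ATP-based viability assay read 72 or 96 h after transfection, depending on culture, given as normalised percent viability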", "direction": "viability, normalised: higher = more viable cells remaining", "rule for the call": "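a well counts as a hit if its normalised viability is under 80 percent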", "calls": "active = viability under 80%; inactive = viability 80% or more", "note": "The deposit covers about 2,100 reagents; below is an unselected part. 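Calls flag viability under 80% in either arm, not effects specific to rucaparib; the reference for percent is not stated.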 Unmarked entries are inactive. Some reagents were tested in more than one well and are listed for each. Not stated in the record: the 100% reference."}
{"gene": "SULT1A2", "rucaparib or vehicle": "Rucaparib", "cell line": "OCI-C5x (clear cell)", "technical replicate": "1", "viability, normalised (%)": "55.8 (active)"}
{"gene": "SULT1A2", "rucaparib or vehicle": "Rucaparib", "cell line": "OCI-C5x (clear cell)", "technical replicate": "2", "viability, normalised (%)": "49.8 (active)"}
{"gene": "SULT1A2", "rucaparib or vehicle": "Rucaparib", "cell line": "OCI-C5x (clear cell)", "technical replicate": "3", "viability, normalised (%)": "51.9 (active)"}
{"gene": "SULT1A2", "rucaparib or vehicle": "Rucaparib", "cell line": "OCI-P5x (serous)", "technical replicate": "1", "viability, normalised (%)": "53.2 (active)"}
{"gene": "SULT1A2", "rucaparib or vehicle": "Rucaparib", "cell line": "OCI-P5x (serous)", "technical replicate": "2", "viability, normalised (%)": "62.4 (active)"}
{"gene": "SULT1A2", "rucaparib or vehicle": "Rucaparib", "cell line": "OCI-P5x (serous)", "technical replicate": "3", "viability, normalised (%)": "71.2 (active)"}
{"gene": "SULT1A2", "rucaparib or vehicle": "Vehicle", "cell line": "OCI-C5x (clear cell)", "technical replicate": "1", "viability, normalised (%)": "54 (active)"}
{"gene": "SULT1A2", "rucaparib or vehicle": "Vehicle", "cell line": "OCI-C5x (clear cell)", "technical replicate": "2", "viability, normalised (%)": "45.2 (active)"}
{"gene": "SULT1A2", "rucaparib or vehicle": "Vehicle", "cell line": "OCI-C5x (clear cell)", "technical replicate": "3", "viability, normalised (%)": "47.4 (active)"}
{"gene": "SULT1A2", "rucaparib or vehicle": "Vehicle", "cell line": "OCI-P5x (serous)", "technical replicate": "1", "viability, normalised (%)": "57.1 (active)"}
{"gene": "SULT1A2", "rucaparib or vehicle": "Vehicle", "cell line": "OCI-P5x (serous)", "technical replicate": "2", "viability, normalised (%)": "52 (active)"}
{"gene": "SULT1A2", "rucaparib or vehicle": "Vehicle", "cell line": "OCI-P5x (serous)", "technical replicate": "3", "viability, normalised (%)": "47.4 (active)"}

Look-ups from above.
SULT1A2, rucaparib or vehicle Vehicle, cell line OCI-P5x (serous), technical replicate 1, viability, normalised (%): 57.1 (active)
Value for SULT1A2, rucaparib or vehicle Rucaparib, cell line OCI-P5x (serous), technical replicate 3 under “viability, normalised (%)”: 71.2 (active)

Continued:
{"gene": "RAD21", "rucaparib or vehicle": "Rucaparib", "cell line": "OCI-C5x (clear cell)", "technical replicate": "1", "viability, normalised (%)": "49 (active)"}
{"gene": "RAD21", "rucaparib or vehicle": "Rucaparib", "cell line": "OCI-C5x (clear cell)", "technical replicate": "1", "viability, normalised (%)": "53.1 (active)"}
{"gene": "RAD21", "rucaparib or vehicle": "Rucaparib", "cell line": "OCI-C5x (clear cell)", "technical replicate": "2", "viability, normalised (%)": "71.5 (active)"}
{"gene": "RAD21", "rucaparib or vehicle": "Rucaparib", "cell line": "OCI-C5x (clear cell)", "technical replicate": "2", "viability, normalised (%)": "59.5 (active)"}
{"gene": "RAD21", "rucaparib or vehicle": "Rucaparib", "cell line": "OCI-C5x (clear cell)", "technical replicate": "3", "viability, normalised (%)": "56.2 (active)"}
{"gene": "RAD21", "rucaparib or vehicle": "Rucaparib", "cell line": "OCI-C5x (clear cell)", "technical replicate": "3", "viability, normalised (%)": "52.6 (active)"}
{"gene": "RAD21", "rucaparib or vehicle": "Rucaparib", "cell line": "OCI-P5x (serous)", "technical replicate": "1", "viability, normalised (%)": "55.3 (active)"}
{"gene": "RAD21", "rucaparib or vehicle": "Rucaparib", "cell line": "OCI-P5x (serous)", "technical replicate": "1", "viability, normalised (%)": "68.2 (active)"}
{"gene": "RAD21", "rucaparib or vehicle": "Rucaparib", "cell line": "OCI-P5x (serous)", "technical replicate": "2", "viability, normalised (%)": "55.5 (active)"}
{"gene": "RAD21", "rucaparib or vehicle": "Rucaparib", "cell line": "OCI-P5x (serous)", "technical replicate": "2", "viability, normalised (%)": "48.8 (active)"}
{"gene": "RAD21", "rucaparib or vehicle": "Rucaparib", "cell line": "OCI-P5x (serous)", "technical replicate": "3", "viability, normalised (%)": 86.4}
{"gene": "RAD21", "rucaparib or vehicle": "Rucaparib", "cell line": "OCI-P5x (serous)", "technical replicate": "3", "viability, normalised (%)": 80.5}
{"gene": "RAD21", "rucaparib or vehicle": "Vehicle", "cell line": "OCI-C5x (clear cell)", "technical replicate": "1", "viability, normalised (%)": "48.8 (active)"}
{"gene": "RAD21", "rucaparib or vehicle": "Vehicle", "cell line": "OCI-C5x (clear cell)", "technical replicate": "1", "viability, normalised (%)": "51.8 (active)"}
{"gene": "RAD21", "rucaparib or vehicle": "Vehicle", "cell line": "OCI-C5x (clear cell)", "technical replicate": "2", "viability, normalised (%)": "47.5 (active)"}
{"gene": "RAD21", "rucaparib or vehicle": "Vehicle", "cell line": "OCI-C5x (clear cell)", "technical replicate": "2", "viability, normalised (%)": "51.1 (active)"}
{"gene": "RAD21", "rucaparib or vehicle": "Vehicle", "cell line": "OCI-C5x (clear cell)", "technical replicate": "3", "viability, normalised (%)": "52.1 (active)"}
{"gene": "RAD21", "rucaparib or vehicle": "Vehicle", "cell line": "OCI-C5x (clear cell)", "technical replicate": "3", "viability, normalised (%)": "37.5 (active)"}
{"gene": "RAD21", "rucaparib or vehicle": "Vehicle", "cell line": "OCI-P5x (serous)", "technical replicate": "1", "viability, normalised (%)": "58 (active)"}
{"gene": "RAD21", "rucaparib or vehicle": "Vehicle", "cell line": "OCI-P5x (serous)", "technical replicate": "1", "viability, normalised (%)": "58.3 (active)"}
{"gene": "RAD21", "rucaparib or vehicle": "Vehicle", "cell line": "OCI-P5x (serous)", "technical replicate": "2", "viability, normalised (%)": "48.5 (active)"}
{"gene": "RAD21", "rucaparib or vehicle": "Vehicle", "cell line": "OCI-P5x (serous)", "technical replicate": "2", "viability, normalised (%)": "78.6 (active)"}
{"gene": "RAD21", "rucaparib or vehicle": "Vehicle", "cell line": "OCI-P5x (serous)", "technical replicate": "3", "viability, normalised (%)": "71.9 (active)"}
{"gene": "RAD21", "rucaparib or vehicle": "Vehicle", "cell line": "OCI-P5x (serous)", "technical replicate": "3", "viability, normalised (%)": "54.9 (active)"}
